In paper PMC4275582:
These are yes or no findings as the source states them, for the method shown. In cells and extracts the contact can be indirect. Binding can be weak; no strength is given. Sequences can lack the tags named with a protein.

Biological target: T1, ITFG1-Myc (human LINKIN) (human) (UniProt Q8TB96)
T1 sequence: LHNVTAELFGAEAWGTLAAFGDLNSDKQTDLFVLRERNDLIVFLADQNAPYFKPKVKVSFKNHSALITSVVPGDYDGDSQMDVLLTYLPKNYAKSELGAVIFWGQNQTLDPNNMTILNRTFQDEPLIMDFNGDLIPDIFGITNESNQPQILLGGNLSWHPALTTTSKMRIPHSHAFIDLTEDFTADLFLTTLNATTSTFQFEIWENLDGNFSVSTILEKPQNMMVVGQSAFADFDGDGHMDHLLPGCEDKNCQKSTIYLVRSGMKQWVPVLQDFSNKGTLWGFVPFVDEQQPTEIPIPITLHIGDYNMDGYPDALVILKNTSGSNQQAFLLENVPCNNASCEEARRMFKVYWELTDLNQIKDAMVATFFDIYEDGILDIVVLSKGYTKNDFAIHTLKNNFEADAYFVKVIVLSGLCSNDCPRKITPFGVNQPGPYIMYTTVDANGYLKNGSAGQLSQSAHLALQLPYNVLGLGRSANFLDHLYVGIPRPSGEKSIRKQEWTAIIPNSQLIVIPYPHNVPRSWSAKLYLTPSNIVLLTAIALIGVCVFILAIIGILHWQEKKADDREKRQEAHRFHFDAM
Experiment: co-IP; Myc-beads immunoprecipitation from ITFG1-Myc-transfected and non-transfected HEK 293T cells; Western blot with antibodies against RUVBL1, RUVBL2, α-tubulin, β-tubulin and β-actin

binding: binds
Substance: α-tubulin (human (endogenous in HEK 293T))
